{
  "source": "PubChem BioAssay AID445",
  "about": "(National Center for Advancing Translational Sciences (NCATS), 2006)",
  "assay": "IkB Signaling",
  "conditions": "ABC-DLBCL IkBa-CBG/CBR dual luciferase ratio (green luciferase fused to IkBa over red control in OCI-Ly3 lymphoma cells), 4 h",
  "how_it_was_run": "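In this assay, an IκBα–CBG68 fusion accumulates when IKK-driven degradation is blocked; native CBR normalizes for cell number. OCI-Ly3 cells were treated 4 h with compound and doxycycline, then green and red light read after Chroma-Glo addition.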",
  "key": {"[1]": {"conditions": "measured here: control luc red channel unless noted"}},
  "note": "Some of the results follow. Shown are side measurements of this screen, not its main read-out; they come without a call. The list favours compounds with an active or inconclusive main result. Potencies come from curve fits of mixed quality, noted in brackets.",
  "data": [
    {"compound": "CCc1ccc(OCC(=O)NCc2ccco2)c(Br)c1", "values": [
      {"measurement": "AC50", "setting": "[1]", "result": "20 µM [falling, single point]"}
    ]},
    {"compound": "O=C(Nc1ccc(N2CCOCC2)cc1)c1cnsn1", "values": [
      {"measurement": "AC50", "setting": "[1]", "result": "20 µM [falling, partial curve]"}
    ]},
    {"compound": "O=C(Nc1cccc(Cl)c1)c1cc(-c2ccccc2)on1", "values": [
      {"measurement": "AC50", "setting": "[1]", "result": "0.0251 µM [falling, full curve]"}
    ]},
    {"compound": "O=c1[nH]c(C2CCCN(S(=O)(=O)c3ccccc3Cl)C2)nc2c1nnn2Cc1ccc(OC(F)(F)F)cc1", "note": "(configuration not stated)", "values": [
      {"measurement": "AC50", "setting": "[1]", "result": "25.1 µM [falling, partial curve]"}
    ]},
    {"compound": "CC1CN(C(=O)CN2C(=O)NC(C)(c3ccccc3)C2=O)CC(C)O1", "note": "(configuration not stated)", "values": [
      {"measurement": "AC50", "setting": "[1]", "result": "25.1 µM [rising, partial curve]"}
    ]},
    {"compound": "CCc1nn(CCCC(=O)N2CCN(c3ccc(OC)cc3)CC2)c(=O)c2cc3occc3n12", "values": [
      {"measurement": "AC50", "setting": "[1]", "result": "39.8 µM [falling, single point]"}
    ]},
    {"compound": "Cc1c(-c2cccc(NC(=O)Nc3ccccc3)c2)nc2ncccn12", "values": [
      {"measurement": "AC50", "setting": "[1]", "result": "39.8 µM [falling, single point]"}
    ]},
    {"compound": "CCOC(=O)c1ccccc1NC(=O)c1ccc2c(Cl)c3c(nc2c1)CCC3", "values": [
      {"measurement": "AC50", "setting": "[1]", "result": "3.16 µM [falling, partial curve]"}
    ]},
    {"compound": "CNC(=O)[C@@H]1O[C@@H](n2cnc3c(NCc4ccc(N)cc4)ncnc32)[C@@H](O)[C@H]1O", "values": [
      {"measurement": "AC50", "setting": "measured here: IkB-luc green channel", "result": "2 µM [rising, full curve]"},
      {"measurement": "AC50", "setting": "measured here: control luc red channel", "result": "3.16 µM [rising, full curve, poor fit]"}
    ]},
    {"compound": "COc1ccc(N(C)C(=O)c2nc(-c3cccc(F)c3)n3c2CCCCC3)c(OC)c1", "values": [
      {"measurement": "AC50", "setting": "[1]", "result": "39.8 µM [falling, single point]"}
    ]},
    {"compound": "Cc1c(Cl)cccc1NC(=O)c1cc2sccc2n1Cc1ccc(F)cc1", "values": [
      {"measurement": "AC50", "setting": "[1]", "result": "0.00794 µM [rising, full curve, poor fit]"}
    ]},
    {"compound": "Cc1ccc(-c2cc(C(=O)N3CCCC3)no2)cc1", "values": [
      {"measurement": "AC50", "setting": "[1]", "result": "1.58 µM [falling, full curve]"}
    ]},
    {"compound": "Cc1cccn2c(=O)c(C=Nc3ccc(Cl)cc3)c(NCCO)nc12", "values": [
      {"measurement": "AC50", "setting": "[1]", "result": "5.01 µM [falling, full curve]"}
    ]},
    {"compound": "O=C(CSc1nc2ccccc2nc1Cc1ccccc1)N1CCN(c2ccccc2)CC1", "values": [
      {"measurement": "AC50", "setting": "[1]", "result": "39.8 µM [falling, single point]"}
    ]},
    {"compound": "CC(=O)Nc1cc(-c2ccccc2)nn1Cc1cccc(Cl)c1", "values": [
      {"measurement": "AC50", "setting": "[1]", "result": "15.8 µM [falling, partial curve]"}
    ]},
    {"compound": "CC12CCC(c3c(C(=O)Nc4nccs4)nn(-c4ccccc4)c31)C2(C)C", "note": "(configuration not stated)", "values": [
      {"measurement": "AC50", "setting": "[1]", "result": "15.8 µM [falling, partial curve]"}
    ]},
    {"compound": "Cc1noc(NS(=O)(=O)c2ccc(NC(=O)c3ccc(Br)cc3)cc2)c1C", "values": [
      {"measurement": "AC50", "setting": "[1]", "result": "31.6 µM [falling, single point]"}
    ]},
    {"compound": "Cc1ccc(OCc2nnc(SCC(=O)CC(=O)Nc3ccccc3)o2)cc1", "values": [
      {"measurement": "AC50", "setting": "[1]", "result": "39.8 µM [falling, single point]"}
    ]},
    {"compound": "Cc1c(Cl)cccc1NC(=O)c1ccc2nc(C(C)C)oc2c1", "values": [
      {"measurement": "AC50", "setting": "[1]", "result": "3.98 µM [falling, partial curve]"}
    ]},
    {"compound": "CC(C)(C)c1ccc(-c2nnc3sc(-c4ccccn4)nn23)cc1", "values": [
      {"measurement": "AC50", "setting": "[1]", "result": "10 µM [falling, partial curve]"}
    ]},
    {"compound": "CCC(=O)Nc1ccccc1-c1nc2ccccc2n(C(C)C(=O)Nc2ccc(OC)cc2)c1=O", "note": "(configuration not stated)", "values": [
      {"measurement": "AC50", "setting": "[1]", "result": "12.6 µM [falling, partial curve]"}
    ]},
    {"compound": "O=C(O)c1ccc(N2C(=O)c3[nH]nc(-c4ccccc4)c3C2c2cccc(F)c2)cc1", "note": "(configuration not stated)", "values": [
      {"measurement": "AC50", "setting": "[1]", "result": "15.8 µM [falling, partial curve]"}
    ]},
    {"compound": "COc1cccc(C2C(=O)N(C3CCCCC3)CC(=O)N2Cc2ccc(Cl)cc2)c1", "note": "(configuration not stated)", "values": [
      {"measurement": "AC50", "setting": "[1]", "result": "15.8 µM [falling, partial curve]"}
    ]},
    {"compound": "Cc1ccc2c(c1)C(=O)OC(C(=O)Nc1ncc(Cc3ccccc3)s1)C2", "note": "(configuration not stated)", "values": [
      {"measurement": "AC50", "setting": "[1]", "result": "39.8 µM [falling, single point]"}
    ]},
    {"compound": "CC1Cc2cc(S(=O)(=O)CCC(=O)Nc3ccc(Cl)cc3F)ccc2N1C(=O)C1CC1", "note": "(configuration not stated)", "values": [
      {"measurement": "AC50", "setting": "[1]", "result": "15.8 µM [falling, single point]"}
    ]},
    {"compound": "CC(C)Oc1ccc(C(=O)Nc2ccc(-c3nc4ccccc4s3)cc2)cc1", "values": [
      {"measurement": "AC50", "setting": "[1]", "result": "0.1 µM [falling, full curve, poor fit]"}
    ]},
    {"compound": "CC(C)N(Cc1nc(-c2ccccc2)no1)C(=O)c1ccc(Br)o1", "values": [
      {"measurement": "AC50", "setting": "[1]", "result": "25.1 µM [falling, partial curve]"}
    ]},
    {"compound": "COc1ccccc1C(=O)Nc1cc(-c2ccc(C)cc2)no1", "values": [
      {"measurement": "AC50", "setting": "[1]", "result": "39.8 µM [falling, single point]"}
    ]},
    {"compound": "Cc1ccccc1Cn1c(CN2CCN(c3cc(Cl)ccc3C)CC2)nc2c1c(=O)[nH]c(=O)n2C", "values": [
      {"measurement": "AC50", "setting": "[1]", "result": "3.16 µM [falling, full curve]"}
    ]},
    {"compound": "O=C(CC(=O)c1ccccc1)Nc1ccc2c(c1)OCCO2", "values": [
      {"measurement": "AC50", "setting": "[1]", "result": "10 µM [falling, partial curve]"}
    ]},
    {"compound": "COc1ccc(CCNC(=O)CCc2c(C)c3cc4c(C)coc4cc3oc2=O)cc1", "values": [
      {"measurement": "AC50", "setting": "[1]", "result": "39.8 µM [falling, partial curve]"}
    ]}
  ]
}
